In PubChem BioAssay AID602313 (National Center for Advancing Translational Sciences (NCATS), 2012):
Values joined by “and” are separate entries in the source; they are usually repeats but may differ in a detail not shown here. Equal entries are not always repeated. Hit rate of the full screen: of about 390,000 compounds, about 760 (0.19%) were called active. The inconclusive results got no clear call from the source; some entries with a clear call stand among them for comparison. The call rests on the fitted dose curve; in most records, active means well fitted inhibition curve with a large enough effect; inconclusive means small, poorly fitted or top-dose-only effect; inactive means flat fitted curve, though single readings scatter. Potencies beside an inconclusive call are fits to weak or partial responses and may not hold up.

Experiment: qHTS for Inhibitors of Vif-A3F Interactions: qHTS; further: nearly all actives have a fitted effect of over 65% in size; on activity, negative = active: % of control where 0% means no effect
Conditions: HeLa A3F-eYFP + Vif (tagged APOBEC3F with the HIV-1 protein that degrades it), YFP fluorescence increase; series mostly up to 46.1 µM; activity, negative = active: at the top concentration
In short: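 HeLa cells stably expressing Vif plus C-terminally eYFP-tagged A3F were seeded, incubated overnight at 37 deg C, dosed with compound, incubated overnight again at 37 deg C. Yellow fluorescence (Ex 488/Em 500-530) reported blocked Vif-mediated A3F-eYFP degradation.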
Potency means the concentration at half of the fitted maximal effect.

Row | Structure (SMILES) | Potency | activity, negative = active
1 | COc1cc(OC)c(C2=NOC(C(=O)NCc3cccnc3)C2)cc1Cl (stereo not given) | inconclusive: 5.62 µM [inhibitor, single point] | 
2 | COc1ccc(NC(=O)CSC2=Nc3ccccc3C3=NC(CCC(=O)NCCc4ccccc4)C(=O)N23)c(OC)c1 (stereo not given) |  | inactive: 2.08%
3 | Cc1ccc(C)c(NC(=O)C2CCCN(S(=O)(=O)c3cccnc3)C2)c1 (stereo not given) | inconclusive: 3.16 µM [inhibitor, partial curve, poor fit] | 
4 | CN(c1ccccc1)C1CCCCC1NS(=O)(=O)c1ccc(Cl)cc1 (stereo not given) | inconclusive: 35.5 µM [inhibitor, single point] | 
5 | CCCCCCCCOc1ccc(C2OC34CCCCC3C(C#N)(C#N)C2(C#N)C(=N)O4)cc1 (stereo not given) | inconclusive: 35.5 µM [inhibitor, single point] | 
6 | Cc1ccc(NC(=O)CN2CCN(Cc3ccccc3)CC2)cc1 |  | inactive: 12.8%
7 | ClCC1NCC(c2ccccc2Cl)c2c1[nH]c1ccccc21 (stereo not given) | active: 22.4 µM | 
8 | Cc1cc(/C=C2/C(=O)N(C)C(=S)N2C)ccc1N1CCCC1 | inconclusive: 4.47 µM [inhibitor, partial curve, poor fit] | 
9 | CN1CCN(C(=O)CSc2nc(-c3cccs3)cc(-c3cccs3)c2C#N)CC1 | inconclusive: 35.5 µM [inhibitor, single point] | 
10 | Cc1ccc2ncc(C(=O)NCCc3ccc(S(N)(=O)=O)cc3)c(=O)n2c1 | inconclusive: 6.31 µM [inhibitor, partial curve, poor fit] | 
11 | Cc1ccccc1NC(=O)c1c(C)oc2ccc(O)c(CN3CCCC3)c12 |  | inactive: -3.81%
12 | N#Cc1cc2c([nH]c1=S)CCCC2 |  | inactive: 1.39%
13 | COc1ccc(-c2cc(-c3cccs3)c(C#N)c(SCC(=O)NCc3ccccc3OC)n2)cc1 | inconclusive: 35.5 µM [inhibitor, single point] | 
14 | COc1cccc(/C=N\n2c(C)nnc2C)c1OC |  | inactive: -1.56%
15 | Cc1ccc(/C=C2\SC(N)=NC2=O)s1 | inconclusive: 35.5 µM [inhibitor, single point] | 
16 | Cc1nn(-c2ccccc2)c2ncc(C(=O)c3cc(Cl)ccc3O)cc12 |  | inactive: 9.3%
17 | CN(c1ccccc1)S(=O)(=O)c1cccc(C(=O)OCC(=O)NCc2ccco2)c1 | inconclusive: 1.12 µM [inhibitor, full curve, poor fit] | 
18 | CC1=CC(C)(C)NC(=S)N1c1ccccc1C | inconclusive: 35.5 µM [inhibitor, single point] and inconclusive: 20 µM [inhibitor, partial curve, poor fit] | 
19 | Cc1ccccc1OCCSc1nc2ncnc(N)c2[nH]1 | inconclusive: 3.55 µM [inhibitor, partial curve, poor fit] | 
20 | CN(C)CCCN(C(=O)CCOc1ccccc1)c1nc2c(F)cccc2s1 |  | inactive: 5.34%
21 | Cc1ccc(-c2noc(-c3ccc(NCc4ccco4)c([N+](=O)[O-])c3)n2)cc1 |  | inactive: -15.2%
22 | Cc1ccc(-c2cc(-c3ccc4c(c3)OCO4)c(C#N)c(N)n2)o1 | inconclusive: 10 µM [inhibitor, single point] | 

Row | Structure (SMILES) | Potency | activity, negative = active
23 | CCC(=O)N1CCN(c2ccccc2NC(=O)COc2cc(C)ccc2C(C)C)CC1 |  | inactive: -2.66%
24 | CC1CC(C(O)c2ccccn2)C(=O)C(C(O)c2ccccn2)C1 (stereo not given) | inconclusive: 35.5 µM [inhibitor, partial curve, poor fit] | 
25 | Cc1cc(C)cc(NC(=O)[C@H](NC(=O)[C@@H]2Cc3ccccc3CN2)c2ccccc2)c1 | inconclusive: 3.55 µM [inhibitor, partial curve] | 
26 | Cc1cc(C)c2c(=O)n(CC(=O)N3CCC(N4CCCCC4)CC3)sc2n1 | inconclusive: 35.5 µM [inhibitor, single point] | 
27 | O=C1c2ccccc2-c2onc3ccc(NCCCn4ccnc4)c1c23 | inconclusive: 17.8 µM [inhibitor, single point] | 
28 | Nc1ccc2nc3c(=O)n(CCc4ccccc4)c(=O)[nH]c3nc2c1 | inconclusive: 3.16 µM [inhibitor, partial curve, poor fit] | 
29 | CCOC(=O)C1=C(C)N=c2s/c(=C/c3ccc(OCC(=O)O)c(OC)c3)c(=O)n2C1c1ccc(Cl)cc1 (stereo not given) | inconclusive: 35.5 µM [inhibitor, single point] | 
30 | O=C(O)c1cccc(N2C(=O)c3cccc4c(Cl)ccc(c34)C2=O)c1 | inconclusive: 3.98 µM [inhibitor, single point] | 
31 | O=C(Nc1ccccc1C(=O)NC1CC1)c1ccc([N+](=O)[O-])o1 | inconclusive: 6.31 µM [inhibitor, single point] | 
32 | CCC(C)(C)NC(=O)C(c1ccc(F)cc1)N(Cc1ccc(OC)cc1)C(=O)c1cnccn1 (stereo not given) | inconclusive: 15.8 µM [inhibitor, single point] | 
33 | Cc1cc(Nc2ccccc2C)nc(-n2nc(C)cc2C)n1 | inconclusive: 3.98 µM [inhibitor, single point] | 
34 | COc1ccccc1/C=C/c1nc(S(=O)(=O)c2ccccc2)c(NCCN(C)C)o1 |  | inactive: 1.04%
35 | O=C(/C=C/c1ccc2ccccc2n1)c1cc(Cl)ccc1O | inconclusive: 7.08 µM [inhibitor, partial curve, poor fit] | 
36 | CCOC(=O)c1ccc(C(=O)OCC)nc1 |  | inactive: 0.0295%
37 | NC(=S)N/N=C/c1ccc(-c2ccccc2)o1 | inconclusive: 35.5 µM [inhibitor, single point] | 
38 | CCCN(C(=O)c1cn(C)c(=O)c2ccccc12)c1ccccc1C | inconclusive: 10 µM [inhibitor, partial curve, poor fit] | 
39 | CN(C)C(CNC(=O)c1cc(-c2ccco2)nc2ccccc12)c1ccccc1 (stereo not given) | inconclusive: 11.2 µM [inhibitor, single point] | 
40 | Cc1csc2ncnc(NNC(=O)c3ccc(Cl)cc3)c12 |  | inactive: 3.52%
41 | Cc1cc(C)c(Cn2c3ccccc3c3cnn(CC(=O)NCc4ccccn4)c(=O)c32)c(C)c1 | inconclusive: 15.8 µM [inhibitor, single point] | 
42 | COC(=O)c1ccc(=O)c2nc3/c(=C/O)c(O)cc(=O)c3[nH]c12 |  | inactive: 5.72%
43 | COc1ccc(NC(=O)C(c2ccccc2)c2ccccc2)cn1 | inconclusive: 5.62 µM [inhibitor, single point] | 
44 | Cc1cccc(Cn2cc3c(=O)n(Cc4cccc(F)c4)nc-3c3ccccc32)c1 | inconclusive: 2.82 µM [inhibitor, partial curve, poor fit] | 

Row | Structure (SMILES) | Potency | activity, negative = active
45 | Cc1cccc(CNc2ccc(C(CC(N)=O)NC(=O)Cc3cccc4ccccc34)cc2[N+](=O)[O-])c1 (stereo not given) | inconclusive: 22.4 µM [inhibitor, single point] | 
46 | O=[N+]([O-])c1cccc(NC(=S)Nc2nc(-c3ccccc3Cl)cs2)c1 | inconclusive: 3.55 µM [inhibitor, full curve] | 
47 | COc1ccc(S(=O)(=O)Nc2nc3ccccc3nc2Nc2cccc(C(=O)O)c2)cc1 |  | inactive: -2.57%
48 | O=C(OCC1COC(c2ccccc2)(c2ccccc2)O1)c1ccccc1 (stereo not given) | inconclusive: 2 µM [inhibitor, full curve, poor fit] | 
49 | Cc1ccc(S(=O)(=O)N2CCOC2CNC(=O)C(=O)NCc2ccc(Cl)cc2)cc1 (stereo not given) | inconclusive: 35.5 µM [inhibitor, single point] | 
50 | CC(C)N1C(=O)CC(Nc2cccc3cccc(N)c23)C1=O (stereo not given) | inconclusive: 17.8 µM [inhibitor, partial curve, poor fit] | 
51 | CS(=O)(=O)NCCNc1ncc(C(F)(F)F)cc1Cl |  | inactive: -1.41%
52 | COc1ccc(CNC(=O)c2sc3nc4c(c(C(F)(F)F)c3c2N)CCC4)cc1OC | inconclusive: 15.8 µM [inhibitor, single point] | 
53 | Cc1ccc(NC(=O)CCN2CCC(Cc3ccccc3)CC2)cc1 | inconclusive: 3.98 µM [inhibitor, single point] | 
54 | COc1ccc2cc(OCC(=O)NNC(=O)Nc3ccc(F)cc3)ccc2c1 | inconclusive: 0.355 µM [inhibitor, partial curve, poor fit] | 
55 | Cc1c(C(=O)Nc2cccc(Cl)c2)c2ccccn2c1CCc1ccncc1 |  | inactive: -19.8%
56 | CN(C)c1ccc(C=c2c3ccccc3n3c2cc(-c2ccccc2)[n+]3C)cc1 | inconclusive: 31.6 µM [inhibitor, single point] | 
57 | COc1ccc(C(=O)NCCSCc2ccccc2)cc1OC | inconclusive: 6.31 µM [inhibitor, single point] | 
58 | COC(=O)c1ccc(CSc2nnc3nc(C)cc(C)n23)cc1 | inconclusive: 22.4 µM [inhibitor, single point] | 
59 | C/C(=N\NC(=O)c1ccc(C)cc1C)c1ccc2c(c1)Nc1ccccc1S2 | inconclusive: 35.5 µM [inhibitor, single point] | 
60 | Cc1nnc(SC(C)C(=O)NC2CCCCC2C)s1 (stereo not given) | inconclusive: 6.31 µM [inhibitor, single point] | 
61 | CCCCN(C)CCCNC(=O)Cn1ncc2c3ccccc3n(Cc3ccccc3F)c2c1=O | inconclusive: 35.5 µM [inhibitor, single point] | 
62 | O=S(=O)(c1ccccc1)N1N=C(c2ccc(Cl)cc2)CC1c1ccco1 (stereo not given) | inconclusive: 35.5 µM [inhibitor, single point] | 
63 | COC(=O)c1ccc(Nc2c([N+](=O)[O-])ccc3nonc23)cc1 | active: 25.1 µM | 
64 | COc1ccc(NC(=O)CSc2nc(-c3cccs3)cc(C(F)(F)F)c2C#N)cc1 | inconclusive: 35.5 µM [inhibitor, single point] | 
65 | Cc1nn(Cc2c(Cl)cccc2Cl)c(C)c1NC(=O)c1cc(C(C)C)on1 | inconclusive: 3.55 µM [inhibitor, full curve, poor fit] | 

Gathered by group: the entries above containing a nitro group on carbon (5)
Row | Structure (SMILES) | Potency | activity, negative = active
21 | Cc1ccc(-c2noc(-c3ccc(NCc4ccco4)c([N+](=O)[O-])c3)n2)cc1 |  | inactive: -15.2%
31 | O=C(Nc1ccccc1C(=O)NC1CC1)c1ccc([N+](=O)[O-])o1 | inconclusive: 6.31 µM [inhibitor, single point] | 
45 | Cc1cccc(CNc2ccc(C(CC(N)=O)NC(=O)Cc3cccc4ccccc34)cc2[N+](=O)[O-])c1 (stereo not given) | inconclusive: 22.4 µM [inhibitor, single point] | 
46 | O=[N+]([O-])c1cccc(NC(=S)Nc2nc(-c3ccccc3Cl)cs2)c1 | inconclusive: 3.55 µM [inhibitor, full curve] | 
63 | COC(=O)c1ccc(Nc2c([N+](=O)[O-])ccc3nonc23)cc1 | active: 25.1 µM | 
